{"source": "patent US6524805B1", "about": "(priority 1997, dated 2003)", "system": "estrogen surface receptor (ESR1)", "experiment": "Intracellular calcium (fura-2) in human arterial endothelial cells, estrogen compounds", "assay_type": "cell-based", "conditions": "read-out: IC50 value; stated with the [Ca^2+]i results, against 17β-estradiol", "method": "Human arterial endothelial cells were purchased from Cell Systems (Eugene, Oregon) and grown at 37° C., 5% CO2 in chamber slides (Nunc Int.) with CS-C medium (Cell Systems) supplemented with 10% fetal calf serum and endothelial growth factor. Intracellular calcium levels were measured by dual emission microfluorimetry using the fluorescent dye fura-2/AM. Cells were loaded with the fluorescent ion indicator as follows. […] Cells were washed twice with PBS and then test drugs were added. […] Experiments were carried out at room temperature in PBS without calcium/magnesium. Receptor antagonists, when used, were administered 2 minutes prior to the respective agonist.\nIntracellular calcium levels in human arterial endothelial cells were monitored as described herein for the mu3 studies."}
{"smiles": "CC/C(=C(\\c1ccccc1)c1ccc(OCCN(C)C)cc1)c1ccccc1", "note": "[Tamoxifen]", "values": [{"measurement": "IC50", "result": 0.8, "unit": "nM"}]}
